Measurements published in article PMC10163288.
This is one part of the list.

B1: il2ra_site2_2erj_normal_mot_HHH_b2_01204_af2_000000056_0001_19_34_H_._HHH_b2_01388_0001_0000600058_0000001_0 (protein)
chain: SSSSDEELREIYELLVRLLQAIYEGDEEEAEKLLEEVRRVIEEANNENAEEHLRFLEQELKSSSS
B2: il2ra_site2_3nfp_sap_15_mot_HHH_b2_07083_000000061_0001_42_56_H_._09051a5a5815e8c4a7a718313fa04930_0001_af2_0001_0000100001_0000001_0_0001 (protein)
chain: SSSSDEERVEELLEEAREAREEGDPRKVLEILAEAAHIAFEANNPELFFRIAELAFELMQSSSSS
B3: il2ra_site1_1z92_normal_mot_01209686ea234b34325f918445e6eade_0001_af2_000000154_0001_18_33_H_._HEEHE_1797_0001_0000200025_0000001_0 (protein)
chain: DDEEAFAKDVEVVARLAGVPSVEVREENGKISVHVEGTDEAVKLAENYVRYVAEDAGLRVEVHTH
B4: il2ra_site1_1z92_sap_29_mot_HHH_b1_02756_000000071_0001_20_37_H_._HHH_b1_00020_0001_0000200011_0000001_0_0001_af2pred_dldesign_0_af2pred (protein)
chain: VTVEELLLAAVESRDDAALRDFIRLLLRDTKDPELARQLLRILVKRLGLPEETLERLLALLDELA
B5: il2ra_site1_2b5i_normal_mot_HHH_b1_02271_000000068_0001_1_16_H_._HHH_eva_0455_0001_0000300026_0000001_0_af2pred_dldesign_0_af2pred (protein)
chain: SSSSSSSNWRELLERAEEAFKAGDAAALEALLKEAKAAGLKKTAKTIERAIEEVRSESSSSSSSS
B6: il2ra_site1_3nfp_sap_17_mot_ems_3hC_836_0002_000000087_0001_24_40_H_._HHH_b1_08246_0001_0000200015_0000001_0_0001 (protein)
chain: SRILERFVEQAEKLGNPEFAEVVKILLEVLEQDPRLREEIDRIIRELVSGELPPEEAEELARRLK
B7: il2ra_site2_2erj_sap_15_mot_HHH_b1_03107_000000098_0001_39_52_H_._HHH_b2_05540_0001_0000100002_0000001_0_0001 (protein)
chain: SSSSDEEELLERVEELIERAKEENDNRLAWEALRVAVEIAELGDEEAARRAAELLLEFFRSSSSS
B8: il2ra_site1_3nfp_normal_mot_cc4219192d8ccd35c40e7b68f9a57604_0001_af2_000000124_0001_16_32_H_._HHH_b2_07250_0001_0000900010_0000001_0_af2pred_0001_1_af2pred_swa … (protein)
chain: SSSSDALEFVEELAEKAFENNDKKQLEALYKLLRRALEKHGNPEAEEVLEKVEELLRELQSSSSS
B9: il2ra_site2_3nfp_normal_mot_HHH_b2_01406_000000272_0001_41_55_H_._HHH_b2_05555_af2_0001_0000300006_0000001_0 (protein)
chain: SSSSSSTALFELVRELAEELGLSEEQLHELLQLAAELSQRGVDIEEIEEILEEVARKLSSSSSSS
B10: il2ra_site2_2erj_sap_32_mot_HHH_b2_01204_af2_000000051_0001_19_34_H_._HHH_b1_07035_0001_0001300037_0000001_0_0001 (protein)
chain: SSSSNEELAKSIERMAEQLLEAGDPENARAALETAIRVARWANDKEVAELLEELLEEVRRRSSSS
B11: il2ra_site1_2b5i_normal_mot_HHH_b2_04910_000000118_0001_1_19_H_._HHH_b1_04799_af2_0001_0000100001_0000001_0 (protein)
chain: SSSSDELAKEAVRLFHEADELDRRGDEEEAQKVLEEALEIAEEGNSRVLIRMIRVALENFSSSSS
B12: il2ra_site2_2erj_normal_mot_89dc1dc23437faef961419e82e151d9c_0001_000000098_0001_15_32_H_._HHH_eva_0181_0001_0000100002_0000001_0_af2pred_0001_af2pred_1_swapped (protein)
chain: SSSEEEREEVREELEEIAEELGISPEFVKIAEEAWRLAVEAGADEEFARRNARFVLEALWEGSSS
B13: il2ra_site1_3nfp_normal_mot_eb5a5eebac1e5153f932cc6c3f4b2787_0001_af2_000000065_0001_18_33_H_._HHH_b2_01202_0001_0000300026_0000001_0 (protein)
chain: SSSSSDEEVEERVEELLEEARHVDPRRASRLLREAWRLAAEADDLELSELIYKFIRELVQSSSSS
B14: il2ra_site2_3nfp_sap_21_mot_HHH_b1_05627_af2_000000038_0001_43_56_H_._HHH_b1_06472_0001_0000400012_0000001_0_0001 (protein)
chain: SSSSDEVEELLKELKKLAEEGDEEEFRKVLRRIAQLIAELNDPELFAEAAQILYLFAKNQVSSSS
B15: il2ra_site1_3nfp_sap_10_mot_136a1b26558f6d63e39c8b7f62c9aa34_0001_af2_000000044_0001_17_31_H_._HHH_b2_00046_0001_0000400030_0000001_0_0001 (protein)
chain: SSSSDEEVEEEVEELLEKAKRVEDPHEAAKILHKAYRLAAELGNQELADLVYEVMHRVIKGSSSS
B16: il2ra_site2_3nfp_sap_8_mot_HHH_b2_00729_000000274_0001_42_55_H_._HHH_b1_06486_af2_0001_0000400017_0000001_0_0001 (protein)
chain: SSSSTREELKEMIELALESLESRGDEEAVERVEKLLEEFEKTGDPRIALEVYEIAREAYKSSSSS
B17: il2ra_site1_1z92_sap_21_mot_HHH_b2_02761_000000226_0001_1_18_H_._HHH_b2_05214_af2_0001_0000300031_0000001_0_0001_af2pred_0001_af2pred (protein)
chain: SAAVRDFEHSLKAGIPPEDILKAIRDALKLHGDPEAERVLQIIEELLERGVPPEEIVEILKELFK
B18: il2ra_site2_3nfp_sap_22_mot_HHH_b1_03612_af2_000000124_0001_42_57_H_._5a8f583829a5aa8bf6f84962c228dfd5_0001_af2_0001_0000100004_0000001_0_0001 (protein)
chain: SSSSNEQTEALQLALHALKLALELGDEEAAERLSRLAWELMREGDPELAEELEKLAEEVLSSSSS
B19: il2ra_site2_3nfp_normal_mot_HHH_b2_01155_000000159_0001_38_52_H_._HHH_b1_00283_af2_0001_0000200020_0000001_1 (protein)
chain: SSSSDEEARELAEEAEELAKQGDEEEVRELLARAVHIAYEKNDPELFAFVAEVAFKLWELRSSSS
B20: il2ra_site1_1z92_normal_mot_01209686ea234b34325f918445e6eade_0001_af2_000000154_0001_18_33_H_._HHH_b1_01160_af2_0001_0000100015_0000001_0_af2pred_0001_af2pred_1 … (protein)
chain: SSSNEAEKQLELSAEKALEAGYSPKSIRLALRRAVELLVREFNLSEEEREKLEQLAEELAEGSSS
B21: il2ra_site2_3nfp_sap_24_mot_HHH_b1_01193_af2_000000053_0001_43_57_H_._HHH_b1_07165_0001_0000200006_0000001_0_0001 (protein)
chain: SSSSSDKAEEYIKAALELLREATDPEVRKEHEEVIRAAIESRNNEELRELLEEIEEKLHSSSSSS
B22: il2ra_site2_2erj_normal_mot_b21041926606bcd66a54c4cea8303fc2_0001_1_af2_000000031_0001_15_29_H_._HHH_b2_06190_0001_0000100002_0000001_0_af2pred_0001_1_af2pred_s … (protein)
chain: SSSSNAEERIKELSREALKLDRNGNPEEARELLEEALRLAQENDSPAARKTIEQNLRLLGSSSSS
B23: il2ra_site1_2b5i_sap_17_mot_HHH_b2_04291_000000093_0001_19_37_H_._HHH_b2_03534_af2_0001_0000100005_0000001_0_0001_af2pred_dldesign_0_af2pred (protein)
chain: SSSSSLDEKYARYLKKHVEKAIENKDKDLAYQLLENAAELAARTNDAELAALVERLKKIISSSSS
B24: il2ra_site1_1z92_sap_18_mot_HHH_b1_05862_af2_000000270_0001_22_38_H_._HHH_b2_05565_0001_0000300026_0000001_0_0001 (protein)
chain: SAEEAREIVHELLPPETREAFEKDLERTERFMGDPKNALFALINVLIQMFGDPRLEEAREIVRED

The binders below were run against il2ra, P01589 (assay: yeast display titration).

Apparent Kd, inactive:
B1 no binding seen
B2 no binding seen
B3 no binding seen
B4 no binding seen
B5 no binding seen
B6 no binding seen
B7 no binding seen
B8 no binding seen
B9 no binding seen
B10 no binding seen
B11 no binding seen
B12 no binding seen
B13 no binding seen
B14 no binding seen
B15 no binding seen
B16 no binding seen
B17 no binding seen
B18 no binding seen
B19 no binding seen
B20 no binding seen
B21 no binding seen
B22 no binding seen
B23 no binding seen
B24 no binding seen

Pulled one by one from the list above, 2 records:
Apparent Kd, inactive:
B24 no binding seen
B13 no binding seen
